# Primary screen of a compound library

Results are given as percent effect.
The controls that fix the scale are not given in the record; negative values are as filed.
The compounds are a random part of those screened.

Mtb glucose medium: 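Growth of Mycobacterium tuberculosis over 3 days (7H9 medium with glucose and tyloxapol); the read-out is not stated. Tested at 500 µM. The record gives no direction; compounds that gave an IC50 in retests scored well above the rest, so higher reads as more growth inhibition. Of about 18,000 compounds tested this way, about 1,400 (7.9%) reached 50% or more in at least one test.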
Mtb cholesterol medium: 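Whole-cell growth test on Mycobacterium tuberculosis, read after 4 days in a medium based on cholesterol and the lipid DPPC; the read-out is not stated. Tested at 500 µM. Direction is inferred from retests: higher values go with more growth inhibition. About 18,000 compounds were tested under these conditions; 5% (about 900) showed 50% or more at least once.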

{"smiles": "O=C(CNc1cccc(C(F)(F)F)c1)N1CCNC1=O", "Mtb glucose medium": 12.58, "Mtb cholesterol medium": -7.966}
{"smiles": "COc1c(C(=O)N2CCOCC2)sc2ccc(F)cc12", "Mtb glucose medium": 53.22, "Mtb cholesterol medium": 30.25}
{"smiles": "COCCNC(=O)c1cc(-c2cccc(O)c2)on1", "Mtb glucose medium": 61, "Mtb cholesterol medium": 48.66}
{"smiles": "COCCCn1ccc(NCc2ncc[nH]2)n1", "Mtb glucose medium": -13.8, "Mtb cholesterol medium": -12.35}
{"smiles": "CNC(=O)C1CCN(Cc2c(C)noc2C)CC1", "Mtb glucose medium": 7.358, "Mtb cholesterol medium": 3.889}
{"smiles": "CS(=O)(=O)NC1CCCN(c2ccc(C#N)nc2)C1", "stereo": "configuration not stated", "Mtb glucose medium": 8.603, "Mtb cholesterol medium": 6.48}
{"smiles": "COC(=O)N1CCCC(C(=O)NCc2c[nH]nc2C)C1", "stereo": "configuration not stated", "Mtb glucose medium": 14.07, "Mtb cholesterol medium": 1.35}
{"smiles": "CC1CN(C(=O)c2ccc(NS(C)(=O)=O)cc2)CCO1", "stereo": "configuration not stated", "Mtb glucose medium": 2.336, "Mtb cholesterol medium": -27.34}
{"smiles": "O=C(CC1CNCCO1)NCc1ccc2sccc2c1", "stereo": "configuration not stated", "Mtb glucose medium": 16.77, "Mtb cholesterol medium": 10.77}
{"smiles": "CN(Cc1ccc(S(=O)(=O)N(C)C)o1)CC1CC1", "Mtb glucose medium": 10.03, "Mtb cholesterol medium": 19.09}
{"smiles": "NCc1cccc(NC(=O)NC2CC2)c1", "Mtb glucose medium": 6.196, "Mtb cholesterol medium": -4.357}
{"smiles": "COc1ncccc1C(=O)N(CC(F)F)C1CC1", "Mtb glucose medium": 0.3684, "Mtb cholesterol medium": -6.9}
{"smiles": "NC1CCNC(=O)CC1", "stereo": "configuration not stated", "Mtb glucose medium": -1.194, "Mtb cholesterol medium": -4.686}
{"smiles": "Nc1ccnn1-c1ccccn1", "Mtb glucose medium": 25.63, "Mtb cholesterol medium": 13.99}
{"smiles": "CN(CCC#N)C(=O)Cc1ccc(F)cc1", "Mtb glucose medium": 3.161, "Mtb cholesterol medium": -3.281}
{"smiles": "CCN(C)C(=O)CCOc1ccccc1C(N)=O", "Mtb glucose medium": -0.3894, "Mtb cholesterol medium": 1.773}
{"smiles": "CNCC1(O)CCOCC1", "Mtb glucose medium": 4.82, "Mtb cholesterol medium": 22.87}
{"smiles": "COCCN(Cc1cnn(C)c1)C(=O)C1CCNC1", "stereo": "configuration not stated", "Mtb glucose medium": 7.914, "Mtb cholesterol medium": 11.98}
{"smiles": "Cc1cccc2nc(CN(C)C(=O)CN(C)C)[nH]c12", "Mtb glucose medium": -4.058, "Mtb cholesterol medium": -5.608}
{"smiles": "CC(C)CSc1nnc(CN2CCCC2=O)o1", "Mtb glucose medium": 37.56, "Mtb cholesterol medium": 33.06}
{"smiles": "CO[C@@H]1CN[C@@H](C(=O)Nc2nc(-c3cccs3)ns2)C1", "Mtb glucose medium": 24.76, "Mtb cholesterol medium": 9.844}
{"smiles": "CCCN1CCC(N2CCC(C(N)=O)CC2)CC1", "Mtb glucose medium": 7.302, "Mtb cholesterol medium": 9.705}
{"smiles": "NCc1ccccc1OCCN1CCOCC1", "Mtb glucose medium": 27.37, "Mtb cholesterol medium": -12.97}
{"smiles": "CN(C)C(=O)NC1CCNCC1", "Mtb glucose medium": -4.62, "Mtb cholesterol medium": -2.356}
{"smiles": "COc1ccc(CN2C[C@@H](O)[C@@H](O)C2)c(Br)c1OC", "Mtb glucose medium": 29.42, "Mtb cholesterol medium": 19.07}
{"smiles": "CCOc1cccc(NC(=O)c2cnn(CC)c2)n1", "Mtb glucose medium": -5.321, "Mtb cholesterol medium": -1.796}
{"smiles": "N#Cc1cc2c(nc1SCC(N)=O)C1CCN2CC1", "Mtb glucose medium": -7.881, "Mtb cholesterol medium": 12.29}
{"smiles": "O=C(c1ccc(F)cc1O)N1CCC(CO)C1", "stereo": "configuration not stated", "Mtb glucose medium": 8.059, "Mtb cholesterol medium": -1.909}
{"smiles": "OCCOCCN1CCN(c2ccccc2F)CC1", "Mtb glucose medium": 4.336, "Mtb cholesterol medium": 2.104}
{"smiles": "N#Cc1ccc(Sc2nnc(N3CCCC3)s2)nc1", "Mtb glucose medium": -13.39, "Mtb cholesterol medium": -23.69}
{"smiles": "CC(O)(CN)c1ccco1", "stereo": "configuration not stated", "Mtb glucose medium": 25.8, "Mtb cholesterol medium": 9.698}
{"smiles": "Cc1cc2cc(C(=O)NCC3CNCCO3)ccc2o1", "stereo": "configuration not stated", "Mtb glucose medium": 35.48, "Mtb cholesterol medium": 22.75}
{"smiles": "COCC(C)S(=O)(=O)N1CCCCC1", "stereo": "configuration not stated", "Mtb glucose medium": 8.907, "Mtb cholesterol medium": 0.2335}
{"smiles": "CCOC1CCCN(Cc2ccccn2)C1", "stereo": "configuration not stated", "Mtb glucose medium": 14.1, "Mtb cholesterol medium": 6.002}
{"smiles": "Cc1ccc(S(=O)(=O)N2CCNC(=O)C2)cc1C(N)=O", "Mtb glucose medium": -6.393, "Mtb cholesterol medium": -5.708}
{"smiles": "CCNC(=O)CNC", "Mtb glucose medium": -2.414, "Mtb cholesterol medium": -5.967}
{"smiles": "CC(C)(C#N)C(=O)NCCNc1cccc(Br)c1", "Mtb glucose medium": 82.84, "Mtb cholesterol medium": 64.46}

For reference, 3 entries once more:

SMILES,Mtb glucose medium,Mtb cholesterol medium
CC(C)CSc1nnc(CN2CCCC2=O)o1,37.56,33.06
N#Cc1cc2c(nc1SCC(N)=O)C1CCN2CC1,-7.881,12.29
COc1c(C(=O)N2CCOCC2)sc2ccc(F)cc12,53.22,30.25

From ChEMBL document CHEMBL3988442, “University of Dundee, Small-Polar-MMV Screening Library” (2021).